Experimental data published in the supplement of paper PMC12067093, “Discovery and optimisation of a covalent ligand for TRIM25 and its application to targeted protein ubiquitination” (Chemical Science, 2025).
This is one part of the list.

Chains of the proteins cited; added tags and fusions are not shown. Lines headed by an entry give the natural chain unless they say otherwise; changes in a name come on top.
UniProt P11766: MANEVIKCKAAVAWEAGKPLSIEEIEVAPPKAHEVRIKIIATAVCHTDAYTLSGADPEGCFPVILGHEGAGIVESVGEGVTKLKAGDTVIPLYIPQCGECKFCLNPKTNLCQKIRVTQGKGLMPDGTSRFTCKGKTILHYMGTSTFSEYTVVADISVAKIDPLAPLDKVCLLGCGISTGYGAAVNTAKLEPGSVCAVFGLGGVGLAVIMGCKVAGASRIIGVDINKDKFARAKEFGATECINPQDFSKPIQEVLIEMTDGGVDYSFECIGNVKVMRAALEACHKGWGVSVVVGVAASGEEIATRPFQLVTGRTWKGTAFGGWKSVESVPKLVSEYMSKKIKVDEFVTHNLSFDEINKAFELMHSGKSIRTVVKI
UniProt P54922: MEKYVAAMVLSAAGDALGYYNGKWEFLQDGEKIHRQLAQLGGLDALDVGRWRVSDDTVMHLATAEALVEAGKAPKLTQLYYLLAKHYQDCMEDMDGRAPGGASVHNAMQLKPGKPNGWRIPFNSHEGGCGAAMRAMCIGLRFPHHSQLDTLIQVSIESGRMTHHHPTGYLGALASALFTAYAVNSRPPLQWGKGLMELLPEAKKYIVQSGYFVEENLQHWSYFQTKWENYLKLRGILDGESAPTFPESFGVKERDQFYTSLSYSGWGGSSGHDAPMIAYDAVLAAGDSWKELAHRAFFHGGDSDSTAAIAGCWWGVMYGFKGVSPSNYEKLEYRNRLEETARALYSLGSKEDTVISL
UniProt P51825: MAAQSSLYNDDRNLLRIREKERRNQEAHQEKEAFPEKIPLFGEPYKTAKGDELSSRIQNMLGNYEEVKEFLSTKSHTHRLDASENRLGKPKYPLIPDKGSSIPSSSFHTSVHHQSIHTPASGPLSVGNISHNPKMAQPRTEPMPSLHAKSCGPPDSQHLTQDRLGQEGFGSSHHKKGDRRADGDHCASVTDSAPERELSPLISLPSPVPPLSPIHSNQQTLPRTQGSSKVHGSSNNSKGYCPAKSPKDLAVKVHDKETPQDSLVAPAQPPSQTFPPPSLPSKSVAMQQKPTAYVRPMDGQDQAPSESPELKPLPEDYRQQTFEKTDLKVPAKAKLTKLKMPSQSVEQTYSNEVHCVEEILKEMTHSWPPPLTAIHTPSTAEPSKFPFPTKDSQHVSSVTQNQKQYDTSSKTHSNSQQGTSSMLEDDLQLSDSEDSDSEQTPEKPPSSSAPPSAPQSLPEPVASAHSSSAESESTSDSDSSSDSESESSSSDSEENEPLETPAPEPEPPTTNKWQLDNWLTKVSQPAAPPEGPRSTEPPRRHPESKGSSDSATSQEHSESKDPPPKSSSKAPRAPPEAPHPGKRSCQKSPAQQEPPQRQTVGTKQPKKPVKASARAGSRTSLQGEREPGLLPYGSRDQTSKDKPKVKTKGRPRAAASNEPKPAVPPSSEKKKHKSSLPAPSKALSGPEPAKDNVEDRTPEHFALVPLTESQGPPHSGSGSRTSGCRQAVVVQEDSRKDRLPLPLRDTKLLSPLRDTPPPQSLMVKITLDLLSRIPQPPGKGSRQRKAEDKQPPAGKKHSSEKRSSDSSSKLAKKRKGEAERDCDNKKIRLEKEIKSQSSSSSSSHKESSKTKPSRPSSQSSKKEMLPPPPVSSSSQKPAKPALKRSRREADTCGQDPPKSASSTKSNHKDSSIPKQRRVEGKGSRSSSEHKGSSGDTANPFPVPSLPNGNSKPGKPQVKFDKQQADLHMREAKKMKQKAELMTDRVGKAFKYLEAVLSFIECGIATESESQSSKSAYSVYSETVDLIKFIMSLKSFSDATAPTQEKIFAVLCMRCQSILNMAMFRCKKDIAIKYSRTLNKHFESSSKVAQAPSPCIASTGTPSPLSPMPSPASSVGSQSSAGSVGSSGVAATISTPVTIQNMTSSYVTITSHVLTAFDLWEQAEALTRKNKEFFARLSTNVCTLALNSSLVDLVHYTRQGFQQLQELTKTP
UniProt P30566: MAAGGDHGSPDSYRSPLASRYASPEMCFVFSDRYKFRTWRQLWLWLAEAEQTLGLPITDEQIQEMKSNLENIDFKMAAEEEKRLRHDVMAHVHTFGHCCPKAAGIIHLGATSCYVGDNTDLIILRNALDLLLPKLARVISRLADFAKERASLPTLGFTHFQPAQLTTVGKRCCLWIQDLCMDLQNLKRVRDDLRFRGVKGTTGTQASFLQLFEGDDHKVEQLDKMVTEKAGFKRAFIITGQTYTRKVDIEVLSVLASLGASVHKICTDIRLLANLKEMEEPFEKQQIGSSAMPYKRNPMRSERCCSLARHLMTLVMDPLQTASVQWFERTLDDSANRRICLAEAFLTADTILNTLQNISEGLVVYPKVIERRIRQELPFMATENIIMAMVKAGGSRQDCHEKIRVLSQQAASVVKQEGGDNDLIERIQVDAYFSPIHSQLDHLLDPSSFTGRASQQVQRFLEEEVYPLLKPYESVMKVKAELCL
UniProt O95490: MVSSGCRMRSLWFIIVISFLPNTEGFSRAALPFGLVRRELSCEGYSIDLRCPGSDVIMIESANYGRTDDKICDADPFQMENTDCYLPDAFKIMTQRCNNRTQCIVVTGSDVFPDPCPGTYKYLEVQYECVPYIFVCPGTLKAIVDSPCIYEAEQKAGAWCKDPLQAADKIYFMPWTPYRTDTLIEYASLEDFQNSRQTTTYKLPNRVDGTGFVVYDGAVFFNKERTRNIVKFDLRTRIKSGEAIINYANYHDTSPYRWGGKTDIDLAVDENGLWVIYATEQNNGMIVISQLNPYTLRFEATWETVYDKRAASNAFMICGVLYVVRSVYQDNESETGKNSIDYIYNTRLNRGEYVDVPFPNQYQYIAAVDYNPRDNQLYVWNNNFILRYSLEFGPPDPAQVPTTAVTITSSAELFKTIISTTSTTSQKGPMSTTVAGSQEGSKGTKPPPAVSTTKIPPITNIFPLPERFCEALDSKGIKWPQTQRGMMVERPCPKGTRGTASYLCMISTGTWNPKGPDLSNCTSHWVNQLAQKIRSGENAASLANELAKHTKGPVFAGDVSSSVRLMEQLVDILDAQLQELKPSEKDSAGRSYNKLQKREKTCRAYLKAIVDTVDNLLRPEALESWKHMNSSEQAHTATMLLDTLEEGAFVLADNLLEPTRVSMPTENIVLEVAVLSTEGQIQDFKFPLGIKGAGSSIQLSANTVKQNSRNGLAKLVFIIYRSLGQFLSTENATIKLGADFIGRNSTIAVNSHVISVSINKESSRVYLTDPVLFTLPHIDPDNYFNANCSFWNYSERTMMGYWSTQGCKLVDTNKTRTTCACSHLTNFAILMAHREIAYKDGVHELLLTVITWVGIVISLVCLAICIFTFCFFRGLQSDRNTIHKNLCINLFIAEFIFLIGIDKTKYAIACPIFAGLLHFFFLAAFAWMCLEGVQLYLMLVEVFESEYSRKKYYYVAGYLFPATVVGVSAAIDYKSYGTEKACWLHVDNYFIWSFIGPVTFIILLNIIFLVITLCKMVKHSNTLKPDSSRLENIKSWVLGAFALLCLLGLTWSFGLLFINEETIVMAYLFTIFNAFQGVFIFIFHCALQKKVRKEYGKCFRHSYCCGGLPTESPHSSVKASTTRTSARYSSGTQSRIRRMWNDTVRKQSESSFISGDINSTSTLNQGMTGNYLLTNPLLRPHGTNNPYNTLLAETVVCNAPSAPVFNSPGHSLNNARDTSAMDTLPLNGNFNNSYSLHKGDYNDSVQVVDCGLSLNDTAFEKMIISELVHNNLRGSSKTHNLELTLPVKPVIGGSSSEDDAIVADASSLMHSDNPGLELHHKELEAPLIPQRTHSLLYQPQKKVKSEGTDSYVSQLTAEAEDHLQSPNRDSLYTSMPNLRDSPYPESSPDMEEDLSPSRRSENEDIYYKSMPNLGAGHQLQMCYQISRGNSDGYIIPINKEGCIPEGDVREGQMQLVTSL
UniProt P35611: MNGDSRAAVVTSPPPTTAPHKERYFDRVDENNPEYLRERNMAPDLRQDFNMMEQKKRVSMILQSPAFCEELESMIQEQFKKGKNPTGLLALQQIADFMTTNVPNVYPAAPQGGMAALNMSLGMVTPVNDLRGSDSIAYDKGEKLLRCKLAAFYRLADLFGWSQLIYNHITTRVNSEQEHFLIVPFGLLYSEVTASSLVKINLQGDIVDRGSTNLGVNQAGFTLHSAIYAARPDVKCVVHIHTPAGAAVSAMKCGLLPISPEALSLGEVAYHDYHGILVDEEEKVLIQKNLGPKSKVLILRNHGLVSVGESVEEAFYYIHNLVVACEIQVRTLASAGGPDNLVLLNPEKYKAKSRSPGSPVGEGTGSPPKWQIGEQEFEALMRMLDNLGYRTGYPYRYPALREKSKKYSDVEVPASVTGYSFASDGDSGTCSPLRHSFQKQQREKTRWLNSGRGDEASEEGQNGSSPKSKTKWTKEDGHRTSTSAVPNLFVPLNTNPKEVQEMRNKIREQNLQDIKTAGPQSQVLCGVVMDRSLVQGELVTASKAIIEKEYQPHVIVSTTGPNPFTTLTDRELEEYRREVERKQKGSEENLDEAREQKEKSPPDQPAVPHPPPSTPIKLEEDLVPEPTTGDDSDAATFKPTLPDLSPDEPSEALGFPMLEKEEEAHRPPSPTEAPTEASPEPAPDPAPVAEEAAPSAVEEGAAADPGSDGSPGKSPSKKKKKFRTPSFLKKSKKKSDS
UniProt O60488: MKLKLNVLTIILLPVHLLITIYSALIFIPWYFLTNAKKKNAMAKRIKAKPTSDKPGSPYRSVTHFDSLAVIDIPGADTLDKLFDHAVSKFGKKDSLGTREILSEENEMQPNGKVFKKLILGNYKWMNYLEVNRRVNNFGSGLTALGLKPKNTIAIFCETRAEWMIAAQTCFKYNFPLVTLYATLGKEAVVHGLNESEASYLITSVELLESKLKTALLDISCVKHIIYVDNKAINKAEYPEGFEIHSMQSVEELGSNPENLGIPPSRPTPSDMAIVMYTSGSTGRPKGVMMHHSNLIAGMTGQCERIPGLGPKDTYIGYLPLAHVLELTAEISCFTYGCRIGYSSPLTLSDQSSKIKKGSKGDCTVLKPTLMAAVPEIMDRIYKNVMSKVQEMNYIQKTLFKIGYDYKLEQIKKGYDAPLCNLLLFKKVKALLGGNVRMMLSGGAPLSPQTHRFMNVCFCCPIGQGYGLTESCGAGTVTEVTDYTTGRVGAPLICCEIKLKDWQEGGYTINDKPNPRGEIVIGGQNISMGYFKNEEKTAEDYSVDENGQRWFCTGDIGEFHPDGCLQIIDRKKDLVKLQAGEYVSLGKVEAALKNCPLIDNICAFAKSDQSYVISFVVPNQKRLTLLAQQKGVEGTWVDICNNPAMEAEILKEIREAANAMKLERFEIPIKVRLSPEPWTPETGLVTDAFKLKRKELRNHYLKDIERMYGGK
UniProt O14672: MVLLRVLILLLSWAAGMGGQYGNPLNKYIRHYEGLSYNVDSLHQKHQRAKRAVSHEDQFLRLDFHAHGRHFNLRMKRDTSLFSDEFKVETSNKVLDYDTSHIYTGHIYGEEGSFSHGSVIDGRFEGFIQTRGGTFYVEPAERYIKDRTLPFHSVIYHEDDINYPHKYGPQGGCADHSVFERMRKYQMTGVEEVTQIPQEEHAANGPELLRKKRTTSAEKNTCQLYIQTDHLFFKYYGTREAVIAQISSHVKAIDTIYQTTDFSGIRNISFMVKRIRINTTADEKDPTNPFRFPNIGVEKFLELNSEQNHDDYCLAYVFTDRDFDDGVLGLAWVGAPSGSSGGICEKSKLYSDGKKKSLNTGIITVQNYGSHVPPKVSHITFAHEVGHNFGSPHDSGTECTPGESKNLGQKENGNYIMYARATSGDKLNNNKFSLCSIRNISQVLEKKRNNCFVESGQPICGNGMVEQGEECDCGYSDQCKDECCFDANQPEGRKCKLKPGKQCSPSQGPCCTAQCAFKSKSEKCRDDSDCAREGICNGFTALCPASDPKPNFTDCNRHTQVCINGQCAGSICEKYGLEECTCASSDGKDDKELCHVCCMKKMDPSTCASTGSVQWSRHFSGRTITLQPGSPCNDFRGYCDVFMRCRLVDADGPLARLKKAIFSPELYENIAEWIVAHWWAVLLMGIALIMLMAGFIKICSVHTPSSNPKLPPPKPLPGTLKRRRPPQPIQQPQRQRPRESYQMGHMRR
UniProt Q9BRR6: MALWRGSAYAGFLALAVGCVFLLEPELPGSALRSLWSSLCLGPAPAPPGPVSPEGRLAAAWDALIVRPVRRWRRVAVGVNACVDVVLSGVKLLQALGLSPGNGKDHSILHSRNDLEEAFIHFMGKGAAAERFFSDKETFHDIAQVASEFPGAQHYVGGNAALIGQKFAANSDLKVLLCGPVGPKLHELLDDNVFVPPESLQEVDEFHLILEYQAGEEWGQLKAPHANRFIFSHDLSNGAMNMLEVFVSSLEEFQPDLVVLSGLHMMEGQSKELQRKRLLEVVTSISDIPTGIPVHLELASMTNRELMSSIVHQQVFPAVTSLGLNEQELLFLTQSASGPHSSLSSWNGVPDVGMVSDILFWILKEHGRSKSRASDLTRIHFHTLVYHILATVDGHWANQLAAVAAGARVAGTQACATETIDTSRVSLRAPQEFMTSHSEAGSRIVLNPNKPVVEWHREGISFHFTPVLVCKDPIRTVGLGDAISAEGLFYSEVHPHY

Compound: CC1Cc2ccccc2N1C(=O)C1CCCN(C1)C(=O)CCl (mixture of isomers) [TRIM25 ligand 11 (diastereomer mixture)]
Assay: probe-labelled cysteine peptide fold change vs DMSO (competition) (log2 fold change); higher = less target engagement (more negative = stronger competition)
Conditions: THP-1, incubation time: 4 h
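Further: competitive chemoproteomic profiling in live THP-1 cells with an iodoacetamide desthiobiotin (IA-DTB) probe, comparing probe-labelled peptide intensities in compound-treated cells against DMSO-treated controls.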

Row | Target | probe-labelled cysteine peptide fold change (10 µM) | probe-labelled cysteine peptide fold change (50 µM)
1 | ADAR_P55265_125_GVDCLSSHFQELSIYQDQEQR (UniProt P55265) | -0.09 | -0.0943
2 | ADH5_P11766_174_VCLLGCGISTGYGAAVNTAK (UniProt P11766) | 0.191 | 0.172
3 | AFTPH_Q6ULP2_583_DSCSWAAFGDQQATESHHR (UniProt Q6ULP2) | 0.0958 | -0.037
4 | ADPRH_P54922_90_HYQDCMEDMDGR (UniProt P54922) | -0.0279 | -0.187
5 | ADAR_P55265_851_CFNTLTNSFQPSLLGR (UniProt P55265) | -0.0403 | 0.114
6 | ADNP_Q9H2P0_76+79_TKPFCCSACPFSSK (UniProt Q9H2P0) | -0.129 | -0.118
7 | ACTR3_P61158_8_LPACVVDCGTGYTK (UniProt P61158) | -0.0511 | -0.00177
8 | AFF1_P51825_1181_LSTNVCTLALNSSLVDLVHYTR (UniProt P51825) | -0.154 | 0.00908
9 | ADAM9_Q13443_539_DCFIEVNSK (UniProt Q13443) | 0.136 | 0.109
10 | ADSL_P30566_266_ICTDIR (UniProt P30566) | 0.199 | 0.262
11 | ADGRL2_O95490_160_AGAWCK (UniProt O95490) | 0.0737 | 0.129
12 | ADK_P55263_160_SLIANLAAANCYKK (UniProt P55263) | -0.669 | -0.408
13 | AFG3L2_Q9Y4W6_525_KLASLTPGFSGADVANVCNEAALIAAR (UniProt Q9Y4W6) | -0.0829 | -0.0803
14 | ADH5_P11766_282_AALEACHK (UniProt P11766) | 0.0343 | 0.186
15 | ADD2_P35612_224_CIIHLHTPATAAVSAMK (UniProt P35612) | -0.0204 | -0.168
16 | ACOT7_O00154_100_CVAALAR (UniProt O00154) | 0.00793 | 0.0177
17 | ADSL_P30566_27_YASPEMCFVFSDR (UniProt P30566) | 0.163 | 0.0596
18 | ACTR6_Q9GZN1_28_IGYSHENVSVIPNCQFR (UniProt Q9GZN1) | 0.0538 | 0.0379
19 | ADAT3_Q96EY9_249_GTYDFRPFPACSFAPAAAPQAVR (UniProt Q96EY9) | 0.0397 | 0.286
20 | ADD1_P35611_236_CVVHIHTPAGAAVSAMK (UniProt P35611) | -0.129 | 0.0202
21 | AGBL1_Q96MI9_809_CSLSGEDLNR (UniProt Q96MI9) | -0.0554 | -0.297
22 | ACSL4_O60488_552+564_WFCTGDIGEFHPDGCLQIIDR (UniProt O60488) | 0.116 | 0.0145
23 | ACSS3_Q9H6R3_602_GHVPLALCVLR (UniProt Q9H6R3) | -0.0322 | 0.162
24 | ADD1_P35611_430_YSDVEVPASVTGYSFASDGDSGTCSPLR (UniProt P35611) | -0.132 | -0.0653
25 | ADAM10_O14672_435_FSLCSIR (UniProt O14672) | -0.00291 | 0.0728
26 | ACTL6A_O96019_152_EKLTELMFEHYNIPAFFLCK (UniProt O96019) | -0.419 | -0.0964
27 | ADRM1_Q16186_88_VPQCPSGR (UniProt Q16186) | -0.171 | -0.0547

Row | Target | probe-labelled cysteine peptide fold change (10 µM) | probe-labelled cysteine peptide fold change (50 µM)
28 | ADGRL2_O95490_1250_GDYNDSVQVVDCGLSLNDTAFEK (UniProt O95490) | -0.287 | -0.21
29 | ADAP1_O75689_101_VPSFYYRPTPSDCQLLR (UniProt O75689) | -0.014 | -0.025
30 | ADGRL3_Q9HAR2_135_VFLCPGLLK (UniProt Q9HAR2) | 0.15 | 0.316
31 | ACSS1_Q9NUB1_422_TLGSVGEPINCEAWEWLHR (UniProt Q9NUB1) | -0.333 | -0.348
32 | ACSF3_Q4G176_139_KHPAAQLEYVICDSQSSVVLASQEYLELLSPVVR (UniProt Q4G176) | 0.145 | -0.0517
33 | ADAR_P55265_909_GETVNDCHAEIISR (UniProt P55265) | 0.121 | 0.0309
34 | ADSL_P30566_99_LRHDVMAHVHTFGHCCPK (UniProt P30566) | -0.137 | 0.0251
35 | ACTR10_Q9NZ32_215_TCFVSDLK (UniProt Q9NZ32) | 0.0471 | 0.0893
36 | ACSL4_O60488_170_AEWMIAAQTCFK (UniProt O60488) | 0.155 | 0.303
37 | ADSS_P30520_182_MCDLVSDFDGFSER (UniProt P30520) | 0.0814 | 0.0196
38 | ACP2_P11117_349_CPLQDFLR (UniProt P11117) | -0.125 | -0.079
39 | AFF3_P51826_630_TRPCGNNR (UniProt P51826) | -0.087 | 0.146
40 | ACTN4_O43707_793_ACLISLGYDVENDRQGEAEFNR (UniProt O43707) | -0.00621 | 0.202
41 | ADAR_P55265_773_WFPAVCAHSK (UniProt P55265) | -0.212 | -0.19
42 | ADSL_P30566_180_CCLWIQDLCMDLQNLKR (UniProt P30566) | -0.043 | 0.0814
43 | ACSL4_O60488_564_WFCTGDIGEFHPDGCLQIIDR (UniProt O60488) | -0.0644 | 0.16
44 | ACTR3_P61158_235_YSYVCPDLVK (UniProt P61158) | 0.00715 | -0.0759
45 | ADAM10_O14672_582_YGLEECTCASSDGKDDK (UniProt O14672) | 0.0616 | 0.108
46 | ACTR2_P61160_11_KVVVCDNGTGFVK (UniProt P61160) | -0.0914 | -0.197
47 | ADPGK_Q9BRR6_178_VLLCGPVGPK (UniProt Q9BRR6) | 0.114 | 0.121
48 | ADNP2_Q6IQ32_74_TKPYCCGLCK (UniProt Q6IQ32) | -0.0867 | 0.0505
49 | ACSL4_O60488_363_GDCTVLKPTLMAAVPEIMDR (UniProt O60488) | 0.161 | 0.115
50 | ADNP_Q9H2P0_31_ILSDIGLEYCK (UniProt Q9H2P0) | -0.242 | -0.102
51 | ACSL3_O95573_652_GTWEELCNSCEMENEVLK (UniProt O95573) | -0.0606 | -0.0955
52 | AFF1_P51825_355_MPSQSVEQTYSNEVHCVEEILK (UniProt P51825) | -0.0231 | -0.406
53 | ADAM17_P78536_184_VCGYLK (UniProt P78536) | -0.00556 | 0.0291
54 | ACOT4_Q8N9L9_121_LLCQAQHER (UniProt Q8N9L9) | -0.132 | -0.0427
